# Reference: publication PMC12756002
# No constants are given. Whether binding was seen depends on the method and setting. Some entries that bind do so weakly or less than the wild type.
# Molecular target: firefly luciferase (firefly) [luciferase: P08659]
# Assay: ELISA; denatured substrate (FL Rnq1 or ΔN Rnq1 400 ng, luciferase 100 ng) immobilised in microtiter wells; dilutions of Sis1-WT or mutants (0-20 or 0-25 nM) in PBS-T with 0.5% BSA, overnight at room temperature; retained Sis1 detected with an anti-Sis1 antibody; both purified
row,binding,Binder
1,binds,"Sis1-WT (protein, UniProt P25294 1-352) MVKETKLYDLLGVSPSANEQELKKGYRKAALKYHPDKPTGDTEKFKEISEAFEILNDPQKREIYDQYGLEAARSGGPSFGPGGPGGAGGAGGFPGGAGGFSGGHAFSNEDAFNIFSQFFGGSSPFGGADDSGFSFSSYPSGGGAGMGGMPGGMGGMHGGMGGMPGGFRSASSSPTYPEEETVQVNLPVSLEDLFVGKKKSFKIGRKGPHGASEKTQIDIQLKPGWKAGTKITYKNQGDYNPQTGRRKTLQFVIQEKSHPNFKRDGDDLIYTLPLSFKESLLGFSKTIQTIDGRTLPLSRVQPVQPSQTSTYPGQGMPTPKNPSQRGNLIVKYKVDYPISLNDAQKRAIDENF"
2,binds,"Sis1-S49V (protein, UniProt P25294 1-352) MVKETKLYDLLGVSPSANEQELKKGYRKAALKYHPDKPTGDTEKFKEIVEAFEILNDPQKREIYDQYGLEAARSGGPSFGPGGPGGAGGAGGFPGGAGGFSGGHAFSNEDAFNIFSQFFGGSSPFGGADDSGFSFSSYPSGGGAGMGGMPGGMGGMHGGMGGMPGGFRSASSSPTYPEEETVQVNLPVSLEDLFVGKKKSFKIGRKGPHGASEKTQIDIQLKPGWKAGTKITYKNQGDYNPQTGRRKTLQFVIQEKSHPNFKRDGDDLIYTLPLSFKESLLGFSKTIQTIDGRTLPLSRVQPVQPSQTSTYPGQGMPTPKNPSQRGNLIVKYKVDYPISLNDAQKRAIDENF"

# The remaining lines, values behind:
row,Binder,binding
1,"Sis1-N56L (protein, UniProt P25294 1-352) MVKETKLYDLLGVSPSANEQELKKGYRKAALKYHPDKPTGDTEKFKEISEAFEILLDPQKREIYDQYGLEAARSGGPSFGPGGPGGAGGAGGFPGGAGGFSGGHAFSNEDAFNIFSQFFGGSSPFGGADDSGFSFSSYPSGGGAGMGGMPGGMGGMHGGMGGMPGGFRSASSSPTYPEEETVQVNLPVSLEDLFVGKKKSFKIGRKGPHGASEKTQIDIQLKPGWKAGTKITYKNQGDYNPQTGRRKTLQFVIQEKSHPNFKRDGDDLIYTLPLSFKESLLGFSKTIQTIDGRTLPLSRVQPVQPSQTSTYPGQGMPTPKNPSQRGNLIVKYKVDYPISLNDAQKRAIDENF",binds
2,"Sis1-E53K (protein, UniProt P25294 1-352) MVKETKLYDLLGVSPSANEQELKKGYRKAALKYHPDKPTGDTEKFKEISEAFKILNDPQKREIYDQYGLEAARSGGPSFGPGGPGGAGGAGGFPGGAGGFSGGHAFSNEDAFNIFSQFFGGSSPFGGADDSGFSFSSYPSGGGAGMGGMPGGMGGMHGGMGGMPGGFRSASSSPTYPEEETVQVNLPVSLEDLFVGKKKSFKIGRKGPHGASEKTQIDIQLKPGWKAGTKITYKNQGDYNPQTGRRKTLQFVIQEKSHPNFKRDGDDLIYTLPLSFKESLLGFSKTIQTIDGRTLPLSRVQPVQPSQTSTYPGQGMPTPKNPSQRGNLIVKYKVDYPISLNDAQKRAIDENF",binds
3,"Sis1-E53A (protein, UniProt P25294 1-352) MVKETKLYDLLGVSPSANEQELKKGYRKAALKYHPDKPTGDTEKFKEISEAFAILNDPQKREIYDQYGLEAARSGGPSFGPGGPGGAGGAGGFPGGAGGFSGGHAFSNEDAFNIFSQFFGGSSPFGGADDSGFSFSSYPSGGGAGMGGMPGGMGGMHGGMGGMPGGFRSASSSPTYPEEETVQVNLPVSLEDLFVGKKKSFKIGRKGPHGASEKTQIDIQLKPGWKAGTKITYKNQGDYNPQTGRRKTLQFVIQEKSHPNFKRDGDDLIYTLPLSFKESLLGFSKTIQTIDGRTLPLSRVQPVQPSQTSTYPGQGMPTPKNPSQRGNLIVKYKVDYPISLNDAQKRAIDENF",binds
